PubChem BioAssay AID1053208 | Peter MacCallum Cancer Centre – 2014
This is a random part of about 17,000 deposited reagents. Over the whole deposit, 788 (4.7%) got an active call. 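Calls rest on z-score classes alone; an extra cut-off of viability at most 70% of control was not applied to them.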 A number with no mark means an inactive call.

- Test: 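Synthetic lethal interactions between gene loss and doxorubicin in osteosarcoma cells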 (primary screen)
- Cells: mouse osteosarcoma cells, early-passage culture from an engineered mouse model of fibroblastic bone tumour
- Reagents: siRNA pool against mouse genes, 40 nM
- Timing: about 120 h (48 h before drug, then 72 h with drug)
- Challenge: doxorubicin 100 nM for 72 h, roughly 30-40% inhibitory dose
- Detection: 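Luminescent ATP signal taken as viability with or without 100 nM doxorubicin for 72 h; mean of two wells set against non-targeting siRNA and turned into robust z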
- Direction: viability z-score with doxorubicin and doxorubicin viability vs non-targeting: higher = more viable cells under doxorubicin; viability z-score without drug: higher = more viable cells with knock-down alone; z-score of drug to no-drug ratio: higher = less drug sensitisation by knock-down
- Rule for the call: 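Called active if knock-down leaves viability unchanged without drug (z within -2 to 2) but lowers it with doxorubicin (z at or under -2)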

target,combined z-score class,viability z-score with doxorubicin,viability z-score without drug,z-score of drug to no-drug ratio,doxorubicin viability vs non-targeting
Gpr88,no change with or without drug,1.57,1.52,0.67,1.08
Map2k3os,no change with or without drug,0.22,1.52,-0.67,0.96
Ranbp2,no change with or without drug,0.67,1.01,0.11,1
Csta2,no change with or without drug,0.9,0,1.01,1.02
Nhlh1,no change with or without drug,1.35,0.51,1.12,1.06
Dusp21,no change with or without drug,0.11,0.51,-0.11,0.95
Scrg1,no change with or without drug,0.79,0.17,0.79,1.01
Or1j19,no change with or without drug,0,-0.17,0.22,0.94
Or4a39,no change with or without drug,-0.45,-0.51,0,0.9
Tia1,no change with or without drug,-1.12,-0.17,-1.01,0.84
Pex5l,low cell count with doxorubicin only (active),-2.02,-1.18,-1.35,0.76
Zfpm2,high cell count without drug only,1.46,2.87,-0.22,1.07
Exoc3l4,no change with or without drug,0,1.01,-0.56,0.94
Sh3bgrl2,no change with or without drug,0.45,-0.34,0.79,0.98
1700018B08Rik,no change with or without drug,-0.9,-0.84,-0.22,0.86
Tdrd12,no change with or without drug,-0.9,0.17,-0.9,0.86
Ghrl,low cell count with doxorubicin only (active),-2.25,-0.51,-2.02,0.74
Zswim4,no change with or without drug,-0.34,-0.84,0.34,0.91
Col15a1,no change with or without drug,0.67,0.84,0.22,1
Rdh7,no change with or without drug,-0.22,-1.18,0.79,0.92
Agpat2,no change with or without drug,-1.57,-0.84,-1.01,0.8
Rasa3,no change with or without drug,0.56,0.51,0.34,0.99
Sst,no change with or without drug,1.57,-0.17,1.91,1.08
Klhdc8a,no change with or without drug,0,0,0.11,0.94
Tacc3,low cell count without drug only,-0.67,-3.54,2.36,0.88
Mrpl37,no change with or without drug,1.69,0.84,1.24,1.09
Plagl1,no change with or without drug,-0.22,-0.51,0.22,0.92
Btg3,no change with or without drug,1.35,0.51,1.12,1.06
Vmn1r73,no change with or without drug,-0.45,0,-0.34,0.9
Cox10,no change with or without drug,0,0.51,-0.22,0.94
Tle6,no change with or without drug,0.22,-0.84,1.01,0.96
Faxc,no change with or without drug,0.22,0.51,0,0.96
Nab2,no change with or without drug,1.35,0.51,1.12,1.06
Orc4,no change with or without drug,-0.34,1.85,-1.35,0.91
Scarb1,high cell count without drug only,1.57,2.19,0.22,1.08
Tmx1,no change with or without drug,-0.45,0,-0.34,0.9
Clstn1,no change with or without drug,-1.12,-0.84,-0.56,0.84
8030498B09Rik,no change with or without drug,-1.12,-0.17,-1.01,0.84
Psmc6,low cell count with and without drug,-7.87,-6.91,-6.07,0.24
Katnal2,no change with or without drug,0.45,1.52,-0.45,0.98
Luc7l,no change with or without drug,0.22,0.17,0.22,0.96
Bcl9l,no change with or without drug,-1.12,-1.52,0,0.84
Ppa1,no change with or without drug,0,-0.51,0.45,0.94
Gdpd3,no change with or without drug,0.34,0.51,0.11,0.97
Msantd2,no change with or without drug,0.22,-0.34,0.56,0.96
Ctc1,no change with or without drug,0.79,-0.51,1.35,1.01
Nap1l3,no change with or without drug,-0.22,-1.35,0.9,0.92
Vps53,no change with or without drug,0.79,0.84,0.34,1.01
Fam135a,no change with or without drug,0.34,0.17,0.34,0.97
Eif4b,high cell count without drug only,-0.79,2.36,-2.02,0.87
Enoph1,high cell count with and without drug,2.36,3.04,0.45,1.15
Kcnn1,no change with or without drug,-0.67,0.51,-0.9,0.88
Rpa2,low cell count with and without drug,-7.42,-5.9,-5.73,0.28
Kcnk1,no change with or without drug,-0.22,-0.51,0.22,0.92
Pclo,no change with or without drug,-1.46,0.84,-1.91,0.81
Ptpn13,no change with or without drug,0.11,-0.51,0.56,0.95
Fgf23,no change with or without drug,-1.35,-1.18,-0.56,0.82
Pop1,no change with or without drug,-1.35,-1.18,-0.56,0.82
Cd2bp2,no change with or without drug,1.24,0.51,1.01,1.05
Bfsp2,no change with or without drug,0.67,0.84,0.22,1
Pgc,no change with or without drug,-0.9,0.84,-1.35,0.86
1700102P08Rik,no change with or without drug,0.45,1.52,-0.45,0.98
Sesn3,no change with or without drug,1.12,0.51,0.9,1.04

Records listed above with an active call:
target,combined z-score class,viability z-score with doxorubicin,viability z-score without drug,z-score of drug to no-drug ratio,doxorubicin viability vs non-targeting
Pex5l,low cell count with doxorubicin only (active),-2.02,-1.18,-1.35,0.76
Ghrl,low cell count with doxorubicin only (active),-2.25,-0.51,-2.02,0.74
